# Test results from the supplement of paper PMC10849652.
# The chains behind the UniProt entries cited, without tags or fusion partners. Where a name states a change or a piece, a line headed by the entry shows the natural chain unless it says otherwise.
# UniProt Q68DK2: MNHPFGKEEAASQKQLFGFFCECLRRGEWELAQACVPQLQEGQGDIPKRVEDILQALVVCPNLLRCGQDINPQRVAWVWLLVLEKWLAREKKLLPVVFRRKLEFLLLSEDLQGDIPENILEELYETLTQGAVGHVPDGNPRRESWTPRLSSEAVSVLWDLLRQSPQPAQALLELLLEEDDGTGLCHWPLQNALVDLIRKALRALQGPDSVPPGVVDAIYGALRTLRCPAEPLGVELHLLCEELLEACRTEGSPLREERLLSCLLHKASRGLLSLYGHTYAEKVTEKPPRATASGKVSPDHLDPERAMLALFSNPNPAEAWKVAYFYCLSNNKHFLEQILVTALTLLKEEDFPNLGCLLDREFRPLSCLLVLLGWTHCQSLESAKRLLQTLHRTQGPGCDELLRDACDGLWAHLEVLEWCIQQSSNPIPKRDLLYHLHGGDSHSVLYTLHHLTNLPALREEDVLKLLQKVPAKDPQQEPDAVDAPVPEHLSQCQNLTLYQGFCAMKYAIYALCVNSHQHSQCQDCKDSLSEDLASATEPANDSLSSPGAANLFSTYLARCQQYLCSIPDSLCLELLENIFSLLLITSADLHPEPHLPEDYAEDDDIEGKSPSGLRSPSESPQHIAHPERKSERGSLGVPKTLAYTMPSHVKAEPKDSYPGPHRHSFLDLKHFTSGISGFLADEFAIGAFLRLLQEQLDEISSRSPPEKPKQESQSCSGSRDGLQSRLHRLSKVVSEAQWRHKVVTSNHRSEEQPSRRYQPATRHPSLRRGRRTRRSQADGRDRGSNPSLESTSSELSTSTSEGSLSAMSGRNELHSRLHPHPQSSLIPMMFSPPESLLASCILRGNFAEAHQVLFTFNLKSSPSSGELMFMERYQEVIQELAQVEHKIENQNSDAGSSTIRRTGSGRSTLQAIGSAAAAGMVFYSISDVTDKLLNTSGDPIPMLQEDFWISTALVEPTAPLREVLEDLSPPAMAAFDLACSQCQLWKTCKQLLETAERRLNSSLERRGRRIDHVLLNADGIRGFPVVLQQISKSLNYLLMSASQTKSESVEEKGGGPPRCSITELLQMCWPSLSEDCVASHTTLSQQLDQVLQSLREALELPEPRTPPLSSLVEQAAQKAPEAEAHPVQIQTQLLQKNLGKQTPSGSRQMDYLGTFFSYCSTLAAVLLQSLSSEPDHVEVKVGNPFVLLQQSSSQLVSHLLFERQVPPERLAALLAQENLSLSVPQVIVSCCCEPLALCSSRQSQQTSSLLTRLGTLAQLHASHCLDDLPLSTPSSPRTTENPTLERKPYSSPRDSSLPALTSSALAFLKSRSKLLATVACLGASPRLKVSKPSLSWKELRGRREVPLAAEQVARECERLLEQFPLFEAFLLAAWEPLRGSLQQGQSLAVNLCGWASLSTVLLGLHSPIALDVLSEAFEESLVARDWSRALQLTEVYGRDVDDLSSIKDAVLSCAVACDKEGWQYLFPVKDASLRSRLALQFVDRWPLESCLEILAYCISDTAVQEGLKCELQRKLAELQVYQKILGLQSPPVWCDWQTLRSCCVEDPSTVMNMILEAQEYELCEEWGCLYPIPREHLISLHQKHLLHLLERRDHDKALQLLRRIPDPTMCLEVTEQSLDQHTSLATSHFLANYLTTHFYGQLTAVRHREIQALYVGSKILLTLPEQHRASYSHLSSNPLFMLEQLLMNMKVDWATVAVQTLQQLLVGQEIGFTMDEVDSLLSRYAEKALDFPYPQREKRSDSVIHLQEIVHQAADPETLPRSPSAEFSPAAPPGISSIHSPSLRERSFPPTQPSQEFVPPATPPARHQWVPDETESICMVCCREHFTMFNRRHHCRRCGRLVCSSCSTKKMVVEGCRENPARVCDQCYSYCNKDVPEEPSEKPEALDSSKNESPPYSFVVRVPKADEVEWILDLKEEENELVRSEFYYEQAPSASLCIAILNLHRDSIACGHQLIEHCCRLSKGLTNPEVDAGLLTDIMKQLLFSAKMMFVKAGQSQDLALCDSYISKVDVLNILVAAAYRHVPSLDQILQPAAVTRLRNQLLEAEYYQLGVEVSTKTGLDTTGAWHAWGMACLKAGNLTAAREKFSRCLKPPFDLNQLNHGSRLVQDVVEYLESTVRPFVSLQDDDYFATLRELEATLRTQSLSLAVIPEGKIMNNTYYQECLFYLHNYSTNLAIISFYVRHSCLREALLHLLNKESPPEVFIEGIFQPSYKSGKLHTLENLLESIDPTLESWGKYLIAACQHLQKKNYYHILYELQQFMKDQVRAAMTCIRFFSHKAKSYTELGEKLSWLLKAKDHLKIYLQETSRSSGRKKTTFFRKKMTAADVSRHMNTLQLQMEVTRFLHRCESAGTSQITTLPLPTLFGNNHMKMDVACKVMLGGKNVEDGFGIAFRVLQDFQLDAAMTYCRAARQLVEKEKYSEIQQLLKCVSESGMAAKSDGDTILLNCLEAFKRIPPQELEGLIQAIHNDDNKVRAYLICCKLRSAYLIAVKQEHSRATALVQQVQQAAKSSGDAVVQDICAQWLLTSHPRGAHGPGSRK
# UniProt Q9BYJ9: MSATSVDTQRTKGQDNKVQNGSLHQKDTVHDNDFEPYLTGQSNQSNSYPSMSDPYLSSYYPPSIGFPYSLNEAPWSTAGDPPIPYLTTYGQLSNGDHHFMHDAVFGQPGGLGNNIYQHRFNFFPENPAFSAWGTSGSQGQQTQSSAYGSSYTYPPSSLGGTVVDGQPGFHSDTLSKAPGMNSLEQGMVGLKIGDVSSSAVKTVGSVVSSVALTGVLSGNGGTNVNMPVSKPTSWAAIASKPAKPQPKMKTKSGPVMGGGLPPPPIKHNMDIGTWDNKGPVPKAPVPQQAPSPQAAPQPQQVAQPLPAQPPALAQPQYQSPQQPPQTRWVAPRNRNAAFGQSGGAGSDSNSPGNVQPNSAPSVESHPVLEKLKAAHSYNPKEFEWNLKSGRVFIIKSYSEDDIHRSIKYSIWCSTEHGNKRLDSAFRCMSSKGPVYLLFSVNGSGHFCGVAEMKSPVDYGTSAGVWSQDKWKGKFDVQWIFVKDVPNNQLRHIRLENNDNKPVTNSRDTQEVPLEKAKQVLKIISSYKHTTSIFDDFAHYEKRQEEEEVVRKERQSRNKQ
# UniProt Q9ULM3: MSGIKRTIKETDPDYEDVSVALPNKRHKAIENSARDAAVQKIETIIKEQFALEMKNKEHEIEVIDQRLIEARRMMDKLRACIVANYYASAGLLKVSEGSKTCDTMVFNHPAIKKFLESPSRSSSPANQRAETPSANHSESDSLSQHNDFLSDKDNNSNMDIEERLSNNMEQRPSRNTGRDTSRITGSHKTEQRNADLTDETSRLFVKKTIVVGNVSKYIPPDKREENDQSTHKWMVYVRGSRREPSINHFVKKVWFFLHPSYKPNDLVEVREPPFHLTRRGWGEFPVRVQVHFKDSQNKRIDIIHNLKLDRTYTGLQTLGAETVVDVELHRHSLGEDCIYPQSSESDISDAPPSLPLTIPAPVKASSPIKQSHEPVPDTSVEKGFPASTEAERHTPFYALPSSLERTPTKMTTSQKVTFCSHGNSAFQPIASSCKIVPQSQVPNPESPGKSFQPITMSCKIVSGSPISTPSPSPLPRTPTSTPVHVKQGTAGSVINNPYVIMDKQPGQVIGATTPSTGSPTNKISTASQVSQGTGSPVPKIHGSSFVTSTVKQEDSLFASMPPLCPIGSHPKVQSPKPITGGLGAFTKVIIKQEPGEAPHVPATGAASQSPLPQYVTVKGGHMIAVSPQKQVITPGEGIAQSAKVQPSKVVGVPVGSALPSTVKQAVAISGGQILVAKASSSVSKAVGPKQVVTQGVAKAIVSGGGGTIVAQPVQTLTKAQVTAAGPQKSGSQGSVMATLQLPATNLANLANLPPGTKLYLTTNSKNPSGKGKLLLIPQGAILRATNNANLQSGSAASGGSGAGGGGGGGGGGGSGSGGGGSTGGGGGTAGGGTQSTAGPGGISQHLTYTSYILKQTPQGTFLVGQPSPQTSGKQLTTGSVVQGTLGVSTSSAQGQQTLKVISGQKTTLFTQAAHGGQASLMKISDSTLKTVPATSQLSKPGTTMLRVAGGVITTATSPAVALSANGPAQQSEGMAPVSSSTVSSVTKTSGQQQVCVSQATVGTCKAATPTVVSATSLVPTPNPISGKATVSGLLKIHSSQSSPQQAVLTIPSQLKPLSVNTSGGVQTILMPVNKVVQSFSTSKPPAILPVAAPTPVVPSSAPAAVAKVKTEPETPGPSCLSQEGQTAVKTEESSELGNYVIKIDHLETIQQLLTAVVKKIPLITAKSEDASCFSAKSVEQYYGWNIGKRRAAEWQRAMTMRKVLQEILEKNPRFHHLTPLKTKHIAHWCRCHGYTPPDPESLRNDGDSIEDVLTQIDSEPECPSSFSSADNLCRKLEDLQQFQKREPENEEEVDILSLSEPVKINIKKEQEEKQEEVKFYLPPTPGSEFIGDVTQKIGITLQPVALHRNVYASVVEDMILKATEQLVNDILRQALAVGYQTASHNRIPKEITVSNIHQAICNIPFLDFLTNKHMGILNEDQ
# UniProt O76080: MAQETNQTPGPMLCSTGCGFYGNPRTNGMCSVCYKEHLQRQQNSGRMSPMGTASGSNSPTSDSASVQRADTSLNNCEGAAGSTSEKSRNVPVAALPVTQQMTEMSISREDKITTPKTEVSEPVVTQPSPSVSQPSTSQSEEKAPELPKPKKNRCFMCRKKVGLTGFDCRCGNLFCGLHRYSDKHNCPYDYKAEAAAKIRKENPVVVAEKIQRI
# UniProt Q96DA0: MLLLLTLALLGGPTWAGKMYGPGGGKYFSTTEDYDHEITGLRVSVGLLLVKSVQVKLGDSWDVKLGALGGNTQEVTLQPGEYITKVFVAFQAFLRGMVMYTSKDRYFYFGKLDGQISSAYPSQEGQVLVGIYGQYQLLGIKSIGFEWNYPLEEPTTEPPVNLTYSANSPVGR
# UniProt P12956: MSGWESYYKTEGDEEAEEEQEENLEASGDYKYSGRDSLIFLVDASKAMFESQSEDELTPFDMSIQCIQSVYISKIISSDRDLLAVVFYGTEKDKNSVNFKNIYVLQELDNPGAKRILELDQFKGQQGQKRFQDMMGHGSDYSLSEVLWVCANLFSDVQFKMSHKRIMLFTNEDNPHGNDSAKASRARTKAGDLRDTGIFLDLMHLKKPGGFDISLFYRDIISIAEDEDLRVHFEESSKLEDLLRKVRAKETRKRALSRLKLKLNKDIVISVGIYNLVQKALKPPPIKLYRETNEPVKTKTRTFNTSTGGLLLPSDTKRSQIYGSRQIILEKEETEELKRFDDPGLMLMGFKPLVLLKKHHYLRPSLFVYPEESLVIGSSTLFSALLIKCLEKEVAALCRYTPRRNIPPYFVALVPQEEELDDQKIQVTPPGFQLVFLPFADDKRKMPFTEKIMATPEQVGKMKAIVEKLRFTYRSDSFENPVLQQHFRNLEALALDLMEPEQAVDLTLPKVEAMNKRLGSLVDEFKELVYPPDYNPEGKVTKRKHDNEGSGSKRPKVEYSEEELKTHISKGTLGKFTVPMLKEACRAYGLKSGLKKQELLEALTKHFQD
# UniProt Q9NTW7: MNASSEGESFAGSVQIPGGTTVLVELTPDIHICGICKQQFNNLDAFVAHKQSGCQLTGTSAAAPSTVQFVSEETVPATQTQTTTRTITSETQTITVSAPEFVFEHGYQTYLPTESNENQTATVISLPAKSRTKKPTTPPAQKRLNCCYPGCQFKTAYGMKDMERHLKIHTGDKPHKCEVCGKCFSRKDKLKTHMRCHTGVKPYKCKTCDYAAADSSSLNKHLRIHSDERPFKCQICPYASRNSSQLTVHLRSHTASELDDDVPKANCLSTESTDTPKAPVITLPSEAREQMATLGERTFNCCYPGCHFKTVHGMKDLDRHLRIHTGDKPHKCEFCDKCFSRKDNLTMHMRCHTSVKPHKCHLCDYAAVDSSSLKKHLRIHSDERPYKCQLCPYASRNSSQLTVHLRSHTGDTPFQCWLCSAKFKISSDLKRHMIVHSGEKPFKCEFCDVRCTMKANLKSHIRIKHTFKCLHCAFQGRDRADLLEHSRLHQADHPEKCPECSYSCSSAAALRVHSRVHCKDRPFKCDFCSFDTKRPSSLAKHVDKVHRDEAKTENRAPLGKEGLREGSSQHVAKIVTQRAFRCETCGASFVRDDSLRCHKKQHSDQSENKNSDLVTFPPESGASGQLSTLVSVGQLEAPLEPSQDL
# UniProt Q9H8U3: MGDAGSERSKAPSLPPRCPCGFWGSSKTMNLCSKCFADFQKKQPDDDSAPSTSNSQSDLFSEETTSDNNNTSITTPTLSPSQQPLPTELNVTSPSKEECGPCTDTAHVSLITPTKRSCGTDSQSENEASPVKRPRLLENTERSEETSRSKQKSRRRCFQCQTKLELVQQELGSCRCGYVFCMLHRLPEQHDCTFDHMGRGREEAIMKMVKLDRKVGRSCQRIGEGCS
# The other results are listed elsewhere or left out.
# Experiments:
# Assay in all cases: log2 fold change, soluble protein after heating vs DMSO (PISA); higher = thermal stabilisation; K562 lysate, 10 uM; active = over 0.2 and 3.5 SD of the protein, either way, in both replicates (recomputed)
# lapatinib = compound: CS(=O)(=O)CCNCc1ccc(-c2ccc3ncnc(Nc4ccc(OCc5cccc(F)c5)c(Cl)c4)c3c2)o1 [lapatinib]
# How it was run: (§1)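 K562 pellets were dounce-homogenised in PBS pH 7.4 with 1 mM MgCl2, and the crude extract at 1 mg/mL protein was treated with 10 μM compound for 30 min. Aliquots were heated for 3 min across 48°C-58°C, pooled, and brought to 0.5% NP-40 at 4°C; soluble protein was the supernatant after 21,000xg for 90 min. Soluble protein was quantified by TMTpro 16plex LC-MS/MS with channel sums equalised, and reported as log2 fold change in thermal stability against DMSO controls, with values from duplicates.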
# pictilisib = compound: CS(=O)(=O)N1CCN(Cc2cc3nc(-c4cccc5[nH]ncc45)nc(N4CCOCC4)c3s2)CC1 [pictilisib]
# How it was run: as §1
# crizotinib = compound: C[C@@H](Oc1cc(-c2cnn(C3CCNCC3)c2)cnc1N)c1c(Cl)ccc(F)c1Cl [crizotinib]
# How it was run: as §1
# doramapimod = compound: Cc1ccc(-n2nc(C(C)(C)C)cc2NC(=O)Nc2ccc(OCCN3CCOCC3)c3ccccc23)cc1 [doramapimod]
# How it was run: as §1
# bafetinib = compound: Cc1ccc(NC(=O)c2ccc(CN3CC[C@H](N(C)C)C3)c(C(F)(F)F)c2)cc1Nc1nccc(-c2cncnc2)n1 [bafetinib]
# How it was run: as §1
# [1] = compound: C[C@H](C1=CC=C(C=C1)C(=O)NC2=C3C=CNC3=NC=C2)N
# How it was run: as §1
# duvelisib = compound: C[C@H](Nc1ncnc2nc[nH]c12)c1cc2cccc(Cl)c2c(=O)n1-c1ccccc1 [duvelisib]
# How it was run: as §1
# gandotinib = compound: Cc1cc(Nc2cc(CN3CCOCC3)c3nc(C)c(Cc4ccc(Cl)cc4F)n3n2)n[nH]1 [gandotinib]
# How it was run: as §1
# tozasertib = compound: Cc1cc(Nc2cc(N3CCN(C)CC3)nc(Sc3ccc(NC(=O)C4CC4)cc3)n2)n[nH]1 [tozasertib]
# How it was run: as §1
# [2] = compound: Cc1cccc(CC(=O)N2CCc3c2ccc(-c2cn(C)c4ncnc(N)c24)c3F)n1
# How it was run: as §1
Target,log2 fold change (lapatinib),log2 fold change (pictilisib),log2 fold change (crizotinib),log2 fold change (doramapimod),log2 fold change (bafetinib),log2 fold change [1],log2 fold change (duvelisib),log2 fold change (gandotinib),log2 fold change (tozasertib),log2 fold change [2]
ZFYVE26 (UniProt Q68DK2),inactive: -0.246,inactive: -0.189,inactive: -0.413,inactive: -0.036,inactive: -0.035,–,–,–,–,–
ZFPL1 (UniProt O95159),inactive: -0.043,inactive: -0.096,inactive: -0.004,inactive: 0.002,inactive: 0.003,inactive: 0.115,inactive: 0.023,inactive: -0.06,inactive: 0.05,inactive: -0.001
ZDHHC17 (UniProt Q8IUH5),inactive: 0.042,–,inactive: 0.098,inactive: 0.11,–,active: -0.778,inactive: -0.301,inactive: 0.037,inactive: -0.025,inactive: 0.17
ZC3H15 (UniProt Q8WU90),inactive: -0.006,inactive: 0.027,inactive: -0.007,inactive: 0.045,inactive: -0.005,inactive: -0.057,inactive: 0.019,inactive: 0.06,inactive: -0.022,inactive: 0.021
ZCCHC8 (UniProt Q6NZY4),inactive: 0.009,inactive: 0.005,inactive: 0,inactive: -0.003,inactive: -0.009,inactive: 0.019,inactive: 0.018,inactive: 0.013,inactive: -0.029,inactive: -0.031
ZEB2 (UniProt O60315),inactive: -0.179,inactive: 0.141,inactive: 0.014,inactive: -0.049,inactive: -0.117,–,inactive: 0.045,–,inactive: 0.02,–
YTHDF1 (UniProt Q9BYJ9),inactive: 0.02,inactive: -0.159,inactive: 0.017,inactive: 0.164,inactive: 0.007,inactive: -0.119,inactive: 0.055,inactive: -0.019,inactive: -0.013,inactive: 0.093
YWHAZ (UniProt E7EX29),inactive: 0.251,inactive: -0.124,–,–,inactive: 0.215,–,–,–,inactive: 0,–
YEATS2 (UniProt Q9ULM3),inactive: -0.093,inactive: -0.126,inactive: -0.029,inactive: 0.035,inactive: -0.248,–,–,–,inactive: -0.125,–
ZDHHC4 (UniProt Q9NPG8),inactive: 0.201,inactive: 0.045,inactive: 0.036,inactive: -0.032,inactive: 0.074,inactive: -0.081,inactive: -0.131,inactive: -0.053,–,inactive: -0.17
ZBTB17 isoform 2 (UniProt Q13105),inactive: -0.085,inactive: -0.037,inactive: -0.113,inactive: -0.073,inactive: -0.2,–,inactive: -0.038,–,–,–
ZCCHC3 (UniProt Q9NUD5),inactive: -0.02,inactive: 0.014,inactive: 0.012,inactive: 0.001,inactive: 0.022,inactive: -0.056,inactive: 0.039,inactive: -0.013,inactive: 0.013,inactive: 0.057
YBX1 (UniProt P67809),inactive: 0.004,inactive: 0.026,inactive: -0.012,inactive: -0.07,inactive: -0.004,inactive: 0.098,inactive: 0.001,inactive: -0.085,inactive: -0.05,inactive: -0.113
ZC3H14 (UniProt Q6PJT7),inactive: -0.015,inactive: -0.005,inactive: 0.018,inactive: -0.034,inactive: -0.015,inactive: -0.025,inactive: 0.044,inactive: 0.023,inactive: -0.013,inactive: 0.044
ZFAND5 (UniProt O76080),inactive: 0.092,inactive: 0.029,inactive: -0.018,inactive: 0.032,inactive: 0.11,inactive: -0.051,inactive: -0.056,inactive: 0.022,–,inactive: 0.078
ZEB1 isoform 2 (UniProt P37275),inactive: 0.05,inactive: -0.003,inactive: -0.11,inactive: 0.063,inactive: 0.042,inactive: 0.042,inactive: 0.027,inactive: 0.116,–,inactive: 0.037
YWHAB (UniProt P31946),inactive: 0.005,inactive: 0.052,inactive: 0.032,inactive: -0.049,inactive: 0.069,inactive: 0.233,inactive: -0.013,inactive: -0.041,inactive: 0.002,inactive: -0.084
XRN1 (UniProt Q8IZH2),inactive: 0.005,inactive: -0.123,inactive: 0.048,inactive: -0.032,inactive: 0,inactive: -0.009,inactive: -0.114,inactive: -0.031,inactive: 0.103,inactive: 0.1
YIPF1 (UniProt Q9Y548),inactive: 0.101,inactive: 0.059,inactive: 0.009,inactive: -0.021,inactive: -0.056,–,inactive: -0.129,–,–,–
ZG16B (UniProt Q96DA0),inactive: 0.232,inactive: 0.254,inactive: 1.37,inactive: 0.048,inactive: 0.215,inactive: 0.346,–,inactive: 0.057,inactive: 1.8,inactive: 0.763
ZDHHC3 isoform 2 (UniProt Q9NYG2),inactive: -0.05,inactive: -0.013,inactive: -0.108,inactive: 0.022,inactive: -0.112,inactive: -0.129,inactive: 0.12,inactive: 0.114,inactive: -0.03,inactive: 0.192
YDJC (UniProt A8MPS7),inactive: -0.003,inactive: -0.016,inactive: 0.022,inactive: 0.025,inactive: -0.017,inactive: -0.031,inactive: -0.044,inactive: 0.02,inactive: 0.022,inactive: -0.033
XRCC6 (UniProt P12956),inactive: -0.017,inactive: 0.023,inactive: -0.024,inactive: -0.014,inactive: -0.016,inactive: -0.013,inactive: 0.002,inactive: -0.072,inactive: -0.019,inactive: 0.002
ZBED8 (UniProt Q8IZ13),inactive: -0.026,inactive: 0.049,inactive: -0.037,inactive: -0.023,inactive: -0.019,–,inactive: 0.048,–,inactive: -0.224,–
XPO1 (UniProt O14980),inactive: -0.039,inactive: 0,inactive: -0.034,inactive: -0.001,inactive: -0.02,inactive: -0.037,inactive: -0.026,inactive: -0.043,inactive: 0.021,inactive: 0.07
ZFP64 isoform 5 (UniProt Q9NTW7),inactive: -0.242,inactive: 0.056,inactive: 0.089,inactive: 0.061,inactive: 0.06,inactive: -0.346,–,inactive: 0.01,inactive: 0.212,inactive: 0.065
ZFAND3 (UniProt Q9H8U3),inactive: -0.095,inactive: -0.057,inactive: 0.105,inactive: 0.101,inactive: 0.093,inactive: 0.114,inactive: 0.01,inactive: -0.041,inactive: -0.038,inactive: -0.058
ZFYVE27 isoform 2 (UniProt Q5T4F4),inactive: 0.005,inactive: -0.028,inactive: -0.075,inactive: -0.022,inactive: -0.047,–,inactive: 0.047,–,inactive: 0.027,–
ZFYVE19 isoform 3 (UniProt Q96K21),inactive: 0.114,inactive: -0.02,–,–,inactive: -0.013,–,–,–,–,–

# Some of the entries above in a different format.
Target	log2 fold change (lapatinib)	log2 fold change (pictilisib)	log2 fold change (crizotinib)	log2 fold change (doramapimod)	log2 fold change (bafetinib)	log2 fold change [1]	log2 fold change (duvelisib)	log2 fold change (gandotinib)	log2 fold change (tozasertib)	log2 fold change [2]
XRN1 (UniProt Q8IZH2)	inactive: 0.005	inactive: -0.123	inactive: 0.048	inactive: -0.032	inactive: 0	inactive: -0.009	inactive: -0.114	inactive: -0.031	inactive: 0.103	inactive: 0.1
YIPF1 (UniProt Q9Y548)	inactive: 0.101	inactive: 0.059	inactive: 0.009	inactive: -0.021	inactive: -0.056	–	inactive: -0.129	–	–	–
